Data source: PubChem BioAssay AID743454 (Peter MacCallum Cancer Centre, 2014)
The deposit covers about 18,000 reagents; this is an unselected part. 450 of all reagents (2.5%) count as active. 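Single biological run; no consistent viability z cut-off exists, so the class columns, not z-scores, define the calls.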 Entries without a mark were called inactive.

Test: 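Knock-downs lowering viability or raising caspase 3/7 activity in vorinostat-treated resistant cells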 (primary screen)
System: human HCT116-VR colon cancer cells, selected for vorinostat resistance
Reagents: siRNA pool against human genes, 40 nM siRNA pool
Duration: vorinostat for 24 h, read-out about 72 h after transfection
Conditions: vorinostat at 2.5 µM final
Measured: 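Cell viability by CellTiter-Fluor and caspase 3/7 activity by luminescence, each scaled to mock wells per plate, duplicates averaged, then robust z-scored over all plates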
Direction: viability robust z-score: higher = more viable cells than screen typical; caspase robust z-score: higher = more caspase 3/7 activity than screen typical
Call rule: 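Hits are knock-downs in viability class RV1/RV2 or caspase class CA1/CA2, excluding ones that killed cells in the no-drug cell-count arm; hits then retested with single siRNAs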

For GABRP (gamma-aminobutyric acid type A receptor subunit pi), what was measured?
viability hit class: no change; caspase hit class: no change; viability robust z-score: -0.05; caspase robust z-score: -0.5

What did the screen give for NIBAN1 (niban apoptosis regulator 1)?
viability hit class: no change; caspase hit class: no change; viability robust z-score: -0.12; caspase robust z-score: 0.46

How did the screen score PPFIA4 (PPFI scaffold protein A4)?
viability hit class: no change; caspase hit class: no change; viability robust z-score: 1.09; caspase robust z-score: 0.94

What did the screen give for PLPPR4 (phospholipid phosphatase related 4)?
viability hit class: no change; caspase hit class: no change; viability robust z-score: 0.67; caspase robust z-score: 0.12

Which result is listed for PIK3CD-AS1 (PIK3CD antisense RNA 1)?
viability hit class: no change; caspase hit class: no change; viability robust z-score: -0.16; caspase robust z-score: 0.7

What is on record for B4GALNT1 (beta-1,4-N-acetyl-galactosaminyltransferase 1)?
viability hit class: no change; caspase hit class: no change; viability robust z-score: -0.26; caspase robust z-score: -1.12

What did the screen give for TIGD6 (tigger transposable element derived 6)?
viability hit class: no change; caspase hit class: no change; viability robust z-score: 0.58; caspase robust z-score: -0.86

With TALDO1 (transaldolase 1), how do the results read?
viability hit class: no change; caspase hit class: no change; viability robust z-score: 0.57; caspase robust z-score: -0.74

For ZNF649 (zinc finger protein 649), how do the results read?
viability hit class: no change; caspase hit class: no change; viability robust z-score: -0.37; caspase robust z-score: -0.5

What did the screen give for ZNF428 (zinc finger protein 428)?
viability hit class: no change; caspase hit class: no change; viability robust z-score: -1.19; caspase robust z-score: 0.86

Limited to “viability robust z-score” (2 entries from above):
PPFIA4 (PPFI scaffold protein A4): 1.09
PLPPR4 (phospholipid phosphatase related 4): 0.67

Additional results follow.
With KAT8 (lysine acetyltransferase 8), what does the deposit list?
viability hit class: no change; caspase hit class: no change; viability robust z-score: -0.74; caspase robust z-score: 0.44

What is on record for CUL4B (cullin 4B)?
viability hit class: no change; caspase hit class: no change; viability robust z-score: 1.08; caspase robust z-score: -0.22

Which result is listed for INSYN2A (inhibitory synaptic factor 2A)?
viability hit class: no change; caspase hit class: no change; viability robust z-score: 0.57; caspase robust z-score: -0.7

For SLC35E2A, what was measured?
viability hit class: no change; caspase hit class: no change; viability robust z-score: 0.03; caspase robust z-score: 0.11

For GNB1 (G protein subunit beta 1), how do the results read?
viability hit class: no change; caspase hit class: no change; viability robust z-score: 0.28; caspase robust z-score: -0.9

What did the screen give for B3GNT8?
viability hit class: no change; caspase hit class: no change; viability robust z-score: -0.64; caspase robust z-score: -0.52

With DNM1L (dynamin 1L), how do the results read?
viability hit class: no change; caspase hit class: no change; viability robust z-score: -0.16; caspase robust z-score: -0.18

How did the screen score RSF1 (remodeling and spacing factor 1)?
viability hit class: no change; caspase hit class: no change; viability robust z-score: -0.66; caspase robust z-score: 4.47

For OR51L1 (olfactory receptor family 51 subfamily L member 1), how do the results read?
viability hit class: no change; caspase hit class: no change; viability robust z-score: -2.23; caspase robust z-score: 4.18

With ZBTB40 (zinc finger and BTB domain containing 40), what was measured?
viability hit class: no change; caspase hit class: no change; viability robust z-score: -0.58; caspase robust z-score: 0.29

What is on record for FRMD8 (FERM domain containing 8)?
viability hit class: no change; caspase hit class: no change; viability robust z-score: 0.9; caspase robust z-score: -0.21
